Consider 14 molecules from doi:10.1101/2024.06.27.601040 (bioRxiv, 2024).

Amino acid sequences for entries named in this document (tags omitted).
UniProt O94851: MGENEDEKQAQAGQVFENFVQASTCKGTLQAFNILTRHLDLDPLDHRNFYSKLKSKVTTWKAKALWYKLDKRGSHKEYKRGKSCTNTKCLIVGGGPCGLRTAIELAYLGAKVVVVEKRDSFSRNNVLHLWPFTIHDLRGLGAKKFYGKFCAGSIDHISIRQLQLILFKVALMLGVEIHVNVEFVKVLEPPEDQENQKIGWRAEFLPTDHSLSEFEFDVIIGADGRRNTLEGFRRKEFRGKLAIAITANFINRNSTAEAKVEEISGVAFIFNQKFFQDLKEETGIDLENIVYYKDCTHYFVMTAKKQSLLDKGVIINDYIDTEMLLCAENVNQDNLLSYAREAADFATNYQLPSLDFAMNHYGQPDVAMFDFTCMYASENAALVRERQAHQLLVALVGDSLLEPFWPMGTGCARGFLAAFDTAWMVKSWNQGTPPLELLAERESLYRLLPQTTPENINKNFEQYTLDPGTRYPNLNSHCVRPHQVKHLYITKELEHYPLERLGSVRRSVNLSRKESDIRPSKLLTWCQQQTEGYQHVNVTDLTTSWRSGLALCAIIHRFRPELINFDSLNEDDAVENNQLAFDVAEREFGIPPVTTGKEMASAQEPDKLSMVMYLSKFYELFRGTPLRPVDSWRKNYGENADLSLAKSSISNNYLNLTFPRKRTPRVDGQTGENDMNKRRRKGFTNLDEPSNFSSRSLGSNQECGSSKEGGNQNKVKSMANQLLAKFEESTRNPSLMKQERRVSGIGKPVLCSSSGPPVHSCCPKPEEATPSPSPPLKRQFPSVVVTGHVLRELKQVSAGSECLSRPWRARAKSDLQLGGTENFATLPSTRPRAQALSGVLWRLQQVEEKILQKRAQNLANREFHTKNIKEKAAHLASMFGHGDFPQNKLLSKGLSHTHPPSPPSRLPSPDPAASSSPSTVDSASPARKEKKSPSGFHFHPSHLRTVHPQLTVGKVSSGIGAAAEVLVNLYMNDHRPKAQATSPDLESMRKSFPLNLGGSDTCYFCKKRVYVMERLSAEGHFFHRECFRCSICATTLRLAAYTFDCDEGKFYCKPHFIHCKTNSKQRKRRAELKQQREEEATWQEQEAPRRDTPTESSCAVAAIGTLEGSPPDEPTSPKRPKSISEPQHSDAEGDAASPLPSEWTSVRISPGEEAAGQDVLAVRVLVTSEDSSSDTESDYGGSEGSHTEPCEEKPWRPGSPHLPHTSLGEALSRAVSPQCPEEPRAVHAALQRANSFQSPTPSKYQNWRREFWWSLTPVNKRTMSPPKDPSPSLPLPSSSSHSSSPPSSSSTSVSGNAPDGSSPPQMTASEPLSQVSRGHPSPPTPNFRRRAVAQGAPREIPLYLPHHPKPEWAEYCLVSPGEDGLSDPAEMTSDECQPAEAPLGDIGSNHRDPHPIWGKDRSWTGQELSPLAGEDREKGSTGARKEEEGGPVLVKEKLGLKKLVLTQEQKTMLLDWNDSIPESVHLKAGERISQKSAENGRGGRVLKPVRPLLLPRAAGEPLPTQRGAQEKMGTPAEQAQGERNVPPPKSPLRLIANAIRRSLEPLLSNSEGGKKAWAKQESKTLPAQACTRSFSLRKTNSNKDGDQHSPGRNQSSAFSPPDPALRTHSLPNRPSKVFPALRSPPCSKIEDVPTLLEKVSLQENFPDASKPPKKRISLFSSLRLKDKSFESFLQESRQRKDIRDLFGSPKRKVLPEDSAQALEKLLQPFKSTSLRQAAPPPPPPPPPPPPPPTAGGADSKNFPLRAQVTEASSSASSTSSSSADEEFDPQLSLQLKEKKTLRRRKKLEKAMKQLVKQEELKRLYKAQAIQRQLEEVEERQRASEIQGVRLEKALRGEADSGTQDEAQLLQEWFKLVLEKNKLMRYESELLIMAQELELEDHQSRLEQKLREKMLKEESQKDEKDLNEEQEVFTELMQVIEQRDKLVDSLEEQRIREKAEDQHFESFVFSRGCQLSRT
UniProt Q8TB72: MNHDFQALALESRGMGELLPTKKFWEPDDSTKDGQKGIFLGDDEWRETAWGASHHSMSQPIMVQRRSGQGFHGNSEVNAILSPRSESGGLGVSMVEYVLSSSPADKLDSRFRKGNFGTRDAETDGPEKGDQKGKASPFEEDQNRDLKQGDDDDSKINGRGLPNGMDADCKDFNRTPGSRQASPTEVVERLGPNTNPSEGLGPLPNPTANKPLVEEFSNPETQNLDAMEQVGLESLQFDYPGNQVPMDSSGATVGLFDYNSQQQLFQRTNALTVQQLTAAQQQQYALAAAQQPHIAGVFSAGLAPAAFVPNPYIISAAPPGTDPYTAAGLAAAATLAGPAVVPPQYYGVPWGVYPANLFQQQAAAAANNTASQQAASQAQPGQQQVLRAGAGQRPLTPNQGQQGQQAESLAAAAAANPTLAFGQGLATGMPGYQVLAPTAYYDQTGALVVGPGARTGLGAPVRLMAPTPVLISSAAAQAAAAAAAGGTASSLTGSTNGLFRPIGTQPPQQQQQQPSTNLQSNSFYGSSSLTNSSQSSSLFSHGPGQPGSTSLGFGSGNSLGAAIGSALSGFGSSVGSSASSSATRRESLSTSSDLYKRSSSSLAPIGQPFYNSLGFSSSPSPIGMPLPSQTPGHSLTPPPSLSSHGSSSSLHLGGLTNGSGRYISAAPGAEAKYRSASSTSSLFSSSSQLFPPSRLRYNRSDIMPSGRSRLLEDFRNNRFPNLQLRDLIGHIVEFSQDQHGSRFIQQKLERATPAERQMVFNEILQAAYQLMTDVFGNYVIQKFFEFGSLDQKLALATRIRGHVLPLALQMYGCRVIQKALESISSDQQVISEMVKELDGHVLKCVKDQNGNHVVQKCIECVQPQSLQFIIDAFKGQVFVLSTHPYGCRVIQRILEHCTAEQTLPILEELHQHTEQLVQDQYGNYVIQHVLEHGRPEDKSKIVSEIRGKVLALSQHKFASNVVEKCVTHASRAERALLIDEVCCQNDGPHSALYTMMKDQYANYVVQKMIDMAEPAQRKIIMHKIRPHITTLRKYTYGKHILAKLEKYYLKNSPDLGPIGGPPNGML
UniProt Q8IY18: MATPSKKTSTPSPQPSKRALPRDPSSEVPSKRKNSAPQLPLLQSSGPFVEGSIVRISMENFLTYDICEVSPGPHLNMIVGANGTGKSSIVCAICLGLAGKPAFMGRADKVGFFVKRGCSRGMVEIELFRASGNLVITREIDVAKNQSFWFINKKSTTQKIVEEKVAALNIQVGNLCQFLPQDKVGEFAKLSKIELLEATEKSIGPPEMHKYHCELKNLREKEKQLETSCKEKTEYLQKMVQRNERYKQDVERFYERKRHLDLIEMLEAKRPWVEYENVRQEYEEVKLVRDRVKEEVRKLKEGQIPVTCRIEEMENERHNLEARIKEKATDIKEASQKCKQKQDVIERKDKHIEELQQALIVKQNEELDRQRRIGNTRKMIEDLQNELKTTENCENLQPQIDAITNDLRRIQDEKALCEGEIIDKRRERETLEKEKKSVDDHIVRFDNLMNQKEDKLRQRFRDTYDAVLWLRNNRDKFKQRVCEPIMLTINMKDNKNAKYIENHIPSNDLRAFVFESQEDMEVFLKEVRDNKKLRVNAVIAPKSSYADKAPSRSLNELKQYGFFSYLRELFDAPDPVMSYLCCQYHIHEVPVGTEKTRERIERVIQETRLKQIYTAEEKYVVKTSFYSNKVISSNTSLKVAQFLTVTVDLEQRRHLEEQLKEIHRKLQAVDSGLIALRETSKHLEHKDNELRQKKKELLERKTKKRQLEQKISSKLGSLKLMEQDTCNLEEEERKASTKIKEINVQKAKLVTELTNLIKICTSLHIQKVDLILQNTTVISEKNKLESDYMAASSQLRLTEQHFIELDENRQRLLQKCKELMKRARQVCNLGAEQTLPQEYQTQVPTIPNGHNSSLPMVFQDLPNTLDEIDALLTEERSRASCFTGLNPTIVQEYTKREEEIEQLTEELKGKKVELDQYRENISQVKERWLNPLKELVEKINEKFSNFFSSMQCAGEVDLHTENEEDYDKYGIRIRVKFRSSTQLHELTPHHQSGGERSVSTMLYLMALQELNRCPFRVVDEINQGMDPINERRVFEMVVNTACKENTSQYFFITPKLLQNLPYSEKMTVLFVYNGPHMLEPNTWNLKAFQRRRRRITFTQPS
UniProt Q02386: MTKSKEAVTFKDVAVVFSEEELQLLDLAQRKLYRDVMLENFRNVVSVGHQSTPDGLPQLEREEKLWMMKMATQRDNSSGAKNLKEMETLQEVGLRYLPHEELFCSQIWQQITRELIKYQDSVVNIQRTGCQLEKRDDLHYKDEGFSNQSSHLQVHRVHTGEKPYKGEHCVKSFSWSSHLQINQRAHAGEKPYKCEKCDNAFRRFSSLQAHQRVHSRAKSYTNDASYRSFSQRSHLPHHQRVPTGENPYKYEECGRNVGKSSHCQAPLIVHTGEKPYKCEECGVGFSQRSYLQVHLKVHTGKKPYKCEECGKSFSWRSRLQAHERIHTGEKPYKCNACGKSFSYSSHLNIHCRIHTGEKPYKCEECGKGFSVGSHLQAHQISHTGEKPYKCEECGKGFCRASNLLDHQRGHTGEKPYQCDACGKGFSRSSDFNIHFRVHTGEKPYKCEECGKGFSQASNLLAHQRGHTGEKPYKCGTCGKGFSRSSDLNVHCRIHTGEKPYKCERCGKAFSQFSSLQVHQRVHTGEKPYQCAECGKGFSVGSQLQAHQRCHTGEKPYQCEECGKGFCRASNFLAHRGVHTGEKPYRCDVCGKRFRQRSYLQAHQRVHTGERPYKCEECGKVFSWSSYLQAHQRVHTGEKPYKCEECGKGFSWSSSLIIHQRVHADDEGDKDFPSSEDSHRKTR
UniProt Q9UKK3: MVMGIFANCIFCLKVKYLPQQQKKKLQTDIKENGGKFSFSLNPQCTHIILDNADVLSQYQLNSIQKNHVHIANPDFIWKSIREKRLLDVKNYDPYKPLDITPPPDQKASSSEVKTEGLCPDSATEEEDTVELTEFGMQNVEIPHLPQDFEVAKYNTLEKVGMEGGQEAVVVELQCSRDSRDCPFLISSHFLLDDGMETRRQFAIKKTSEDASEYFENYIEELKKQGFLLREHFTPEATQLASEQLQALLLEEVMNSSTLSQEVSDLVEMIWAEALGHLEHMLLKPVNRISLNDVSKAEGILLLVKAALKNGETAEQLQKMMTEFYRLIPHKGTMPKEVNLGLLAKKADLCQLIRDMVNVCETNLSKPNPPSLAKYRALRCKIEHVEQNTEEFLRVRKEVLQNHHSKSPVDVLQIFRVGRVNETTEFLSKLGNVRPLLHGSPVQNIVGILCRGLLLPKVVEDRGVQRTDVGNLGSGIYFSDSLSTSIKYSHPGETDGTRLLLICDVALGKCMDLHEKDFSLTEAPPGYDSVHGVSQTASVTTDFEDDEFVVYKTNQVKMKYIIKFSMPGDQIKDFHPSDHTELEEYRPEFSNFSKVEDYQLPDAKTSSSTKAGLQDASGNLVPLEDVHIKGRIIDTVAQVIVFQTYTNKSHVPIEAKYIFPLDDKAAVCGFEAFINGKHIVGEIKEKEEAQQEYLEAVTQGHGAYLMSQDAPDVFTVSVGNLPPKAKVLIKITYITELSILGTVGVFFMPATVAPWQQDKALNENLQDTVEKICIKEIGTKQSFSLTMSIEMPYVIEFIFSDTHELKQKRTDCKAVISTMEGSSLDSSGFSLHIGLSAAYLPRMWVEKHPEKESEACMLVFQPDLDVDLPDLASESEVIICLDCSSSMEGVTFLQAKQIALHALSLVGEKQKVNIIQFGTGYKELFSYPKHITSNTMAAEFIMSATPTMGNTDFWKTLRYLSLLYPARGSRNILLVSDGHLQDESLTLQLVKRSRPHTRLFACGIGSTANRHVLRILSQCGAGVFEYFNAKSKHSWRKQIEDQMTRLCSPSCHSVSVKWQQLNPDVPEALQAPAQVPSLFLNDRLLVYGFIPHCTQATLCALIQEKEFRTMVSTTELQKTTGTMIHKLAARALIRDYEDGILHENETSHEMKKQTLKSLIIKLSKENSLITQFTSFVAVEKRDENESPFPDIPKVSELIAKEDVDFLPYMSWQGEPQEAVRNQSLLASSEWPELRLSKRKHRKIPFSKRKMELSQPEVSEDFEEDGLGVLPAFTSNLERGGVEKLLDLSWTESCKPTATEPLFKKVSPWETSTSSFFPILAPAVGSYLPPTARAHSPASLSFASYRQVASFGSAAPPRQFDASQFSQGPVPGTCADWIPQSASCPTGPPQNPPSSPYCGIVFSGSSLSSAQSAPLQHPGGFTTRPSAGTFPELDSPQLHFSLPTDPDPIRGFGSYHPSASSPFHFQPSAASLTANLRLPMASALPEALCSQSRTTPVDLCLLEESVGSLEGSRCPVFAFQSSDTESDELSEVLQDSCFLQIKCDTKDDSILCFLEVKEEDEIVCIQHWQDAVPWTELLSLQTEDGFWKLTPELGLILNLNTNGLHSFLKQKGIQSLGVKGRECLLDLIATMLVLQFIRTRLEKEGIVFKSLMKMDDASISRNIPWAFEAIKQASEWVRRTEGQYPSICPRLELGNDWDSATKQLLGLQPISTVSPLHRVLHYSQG

These are yes or no findings as the source states them, for the method shown. In cells and extracts the contact can be indirect. Here binding means that the protein was enriched with, or labelled near, the bait; the list need not be complete.

The chains are these.
B1: GMPPA (protein, UniProt Q96IJ6 1-420)
chain: MLKAVILIGGPQKGTRFRPLSFEVPKPLFPVAGVPMIQHHIEACAQVPGMQEILLIGFYQPDEPLTQFLEAAQQEFNLPVRYLQEFAPLGTGGGLYHFRDQILAGSPEAFFVLNADVCSDFPLSAMLEAHRRQRHPFLLLGTTANRTQSLNYGCIVENPQTHEVLHYVEKPSTFISDIINCGIYLFSPEALKPLRDVFQRNQQDGQLEDSPGLWPGAGTIRLEQDVFSALAGQGQIYVHLTDGIWSQIKSAGSALYASRLYLSRYQDTHPERLAKHTPGGPWIRGNVYIHPTAKVAPSAVLGPNVSIGKGVTVGEGVRLRESIVLHGATLQEHTCVLHSIVGWGSTVGRWARVEGTPSDPNPNDPRARMDSESLFKDGKLLPAITILGCRVRIPAEVLILNSIVLPHKELSRSFTNQIIL
B2: SMC6 (protein, UniProt Q96SB8 1-1091)
chain: MAKRKEENFSSPKNAKRPRQEELEDFDKDGDEDECKGTTLTAAEVGIIESIHLKNFMCHSMLGPFKFGSNVNFVVGNNGSGKSAVLTALIVGLGGRAVATNRGSSLKGFVKDGQNSADISITLRNRGDDAFKASVYGNSILIQQHISIDGSRSYKLKSATGSVVSTRKEELIAILDHFNIQVDNPVSVLTQEMSKQFLQSKNEGDKYKFFMKATQLEQMKEDYSYIMETKERTKEQIHQGEERLTELKRQCVEKEERFQSIAGLSTMKTNLESLKHEMAWAVVNEIEKQLNAIRDNIKIGEDRAARLDRKMEEQQVRLNEAEQKYKDIQDKLEKISEETNARAPECMALKADVVAKKRAYNEAEVLYNRSLNEYKALKKDDEQLCKRIEELKKSTDQSLEPERLERQKKISWLKERVKAFQNQENSVNQEIEQFQQAIEKDKEEHGKIKREELDVKHALSYNQRQLKELKDSKTDRLKRFGPNVPALLEAIDDAYRQGHFTYKPVGPLGACIHLRDPELALAIESCLKGLLQAYCCHNHADERVLQALMKRFYLPGTSRPPIIVSEFRNEIYDVRHRAAYHPDFPTVLTALEIDNAVVANSLIDMRGIETVLLIKNNSVARAVMQSQKPPKNCREAFTADGDQVFAGRYYSSENTRPKFLSRDVDSEISDLENEVENKTAQILNLQQHLSALEKDIKHNEELLKRCQLHYKELKMKIRKNISEIRELENIEEHQSVDIATLEDEAQENKSKMKMVEEHMEQQKENMEHLKSLKIEAENKYDAIKFKINQLSELADPLKDELNLADSEVDNQKRGKRHYEEKQKEHLDTLNKKKRELDMKEKELEEKMSQARQICPERIEVEKSASILDKEINRLRQKIQAEHASHGDREEIMRQYQEARETYLDLDSKVRTLKKFIKLLGEIMEHRFKTYQQFRRCLTLRCKLYFDNLLSQRAYCGKMNFDHKNETLSISVQPGEGNKAAFNDMRALSGGERSFSTVCFILSLWSIAESPFRCLDEFDVYMDMVNRRIAMDLILKMADSQRFRQFILLTPQSMSSLPSSKLIRILRMSDPERGQTTLPFRPVTQEEDDDQR
B3: ACAD11 (enzyme, UniProt Q709F0 1-780)
chain: MKPGATGESDLAEVLPQHKFDSKSLEAYLNQHLSGFGAEREATLTIAQYRAGKSNPTFYLQKGFQTYVLRKKPPGSLLPKAHQIDREFKVQKALFSIGFPVPKPILYCSDTSVIGTEFYVMEHVQGRIFRDLTIPGLSPAERSAIYVATVETLAQLHSLNIQSLQLEGYGIGAGYCKRQVSTWTKQYQAAAHQDIPAMQQLSEWLMKNLPDNDNEENLIHGDFRLDNIVFHPKECRVIAVLDWELSTIGHPLSDLAHFSLFYFWPRTVPMINQGSYSENSGIPSMEELISIYCRCRGINSILPNWNFFLALSYFKMAGIAQGVYSRYLLGNNSSEDSFLFANIVQPLAETGLQLSKRTFSTVLPQIDTTGQLFVQTRKGQEVLIKVKHFMKQHILPAEKEVTEFYVQNENSVDKWGKPLVIDKLKEMAKVEGLWNLFLPAVSGLSHVDYALIAEETGKCFFAPDVFNCQAPDTGNMEVLHLYGSEEQKKQWLEPLLQGNITSCFCMTEPDVASSDATNIECSIQRDEDSYVINGKKWWSSGAGNPKCKIAIVLGRTQNTSLSRHKQHSMILVPMNTPGVKIIRPLSVFGYTDNFHGGHFEIHFNQVRVPATNLILGEGRGFEISQGRLGPGRIHHCMRTVGLAERALQIMCERATQRIAFKKKLYAHEVVAHWIAESRIAIEKIRLLTLKAAHSMDTLGSAGAKKEIAMIKVAAPRAVSKIVDWAIQVCGGAGVSQDYPLANMYAITRVLRLADGPDEVHLSAIATMELRDQAKRLTAKI

The target of one assay is endogenous MVP (native vault) of A549 cells (human (endogenous in A549)) (UniProt Q14764). In words: affinity purification with mass spectrometry.
As to B1, the binding entry is “binds”.

Regarding B2, the binding entry is reported as “binds”.

As to B3, the binding result is reported as “binds”.

For a further assay the target is unchanged. Briefly: affinity purification with mass spectrometry. This is another data set of the same source.
KPNB1 (from UniProt Q14974 1-876): the binding entry is “binds”.

Consider “LMTK2 (from UniProt Q8IWU2 1-1503) (enzyme)”, for which the binding entry was “binds”.

On to MICAL2 (from UniProt O94851 1-1957), for which the binding result was “binds”.

Take PUM1 (from UniProt Q14671 1-1186): the binding entry was “binds”.

Consider PUM2 (from UniProt Q8TB72 1-1066), for which the binding result is “binds”.

As to SLC25A1 (from UniProt P53007 14-311), the binding entry is on record as “binds”.

Regarding SMC5 (from UniProt Q8IY18 1-1101), the binding entry was “binds”.

TEP1 (from UniProt Q99973 1-2627): the binding entry is given as “binds”.

In the case of ZNF45 (from UniProt Q02386 1-682), the binding result is on record as “binds”.

Consider ZNF420 (from UniProt Q8TAQ5 1-688), for which the binding entry was “binds”.

Take “endogenous PARP4 of A549 cells (from UniProt Q9UKK3 1-1724) (enzyme)”: the binding result is “binds”.
